Where a name gives a salt, the structure may show the parent alone. ± gives the standard deviation of the averaged measurements. The list shows a part of the results. These are raw signals, not scaled to a control.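 Across three biological replicates, HeLa cells were imaged for ribosome assembly using ENP1 staining (export block present or absent) or inducible tagged ribosomal protein reporters. Machine learning classified each cell's signal localization relative to DMSO controls. Hits exceeded the DMSO false-positive mean by five standard deviations and were then visually confirmed.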

This test deals with HeLa K (ENP1 immunofluorescence, +LMB). Briefly: fraction of cells with nucleolar or nucleolar/nucleoplasmic ENP1 signal (MainHitrate); higher = more cells with nucleolar/nuclear readout signal (for ENP1 -LMB: less RNAPI inhibition; for +LMB ENP1 and RP reporters: stronger nuclear/nucleolar retention, i.e. ribosome biogenesis defect). The conditions noted are these: concentration: 1 µM; treatment time: 6 h; ENP1 +LMB; leptomycin B: 20 nM, last 1.5 h.
In turn, `Cc1nccn1CC1CCc2c(c3ccccc3n2C)C1=O` (configuration not stated) [Ondansetron (Zofran)] yielded a fraction of 0.0942 ± 0.14. With `CCCNC(C)C(=O)Nc1c(C)csc1C(=O)OC` (configuration not stated) [Articaine HCl] the figure was 0.0951 ± 0.13; with `CC(C)C[C@H](NC(=O)[C@H](CCc1ccccc1)NC(=O)CN1CCOCC1)C(=O)N[C@@H](Cc1ccccc1)C(=O)N[C@@H](CC(C)C)C(=O)[C@@]1(C)CO1` [Carfilzomib (PR-171)], 0.887 ± 0.066; with `O=C(O)Cc1cc(I)c(Oc2ccc(O)c(I)c2)c(I)c1` [Tiratricol], 0.0486 ± 0.057. With `CCC(=O)O[C@]1(C(=O)CCl)[C@@H](C)C[C@H]2[C@@H]3CCC4=CC(=O)C=C[C@]4(C)[C@@]3(F)[C@@H](O)C[C@@]21C` [Clobetasol propionate] the figure was 0.0434 ± 0.036; with `CC[C@@H]1C(=O)OC[C@@H]1Cc1cncn1C` [Pilocarpine HCl], 0.0527 ± 0.064. For `CC(=O)O[C@]1(C(C)=O)CC[C@H]2[C@@H]3C[C@H](C)C4=CC(=O)C=C[C@]4(C)[C@@]3(F)[C@@H](O)C[C@@]21C` [Fluorometholone Acetate] the value was 0.0888 ± 0.13.

Turning to `c1ccc2[nH]c(-c3cscn3)nc2c1` [Thiabendazole], the fraction came out at 0.128 ± 0.16.

On to `CN(C)CCC[C@@]1(c2ccc(F)cc2)OCc2cc(C#N)ccc21` [Escitalopram oxalate], for which the fraction came out at 0.0944 ± 0.13. For `O=C(NC(Cc1cc(=O)[nH]c2ccccc12)C(=O)O)c1ccc(Cl)cc1` (configuration not stated) [Rebamipide] the value was 0.143 ± 0.22; for `Cc1cccc(N(C)C(=S)Oc2ccc3ccccc3c2)c1` [Tolnaftate], 0.131 ± 0.18. For `CCCC(CCC)C(=O)O` [Divalproex sodium], the fraction was 0.0739 ± 0.068.

These data come from the supplement of paper PMC12542422.
